Results deposited as PubChem BioAssay AID1259424 (University of Nebraska Medical Center, 2018)

Purpose: 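Seek colon cancer survival genes behaving like KSR1, using a six-gene signature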 (primary screen)
System: human HCT116 colon cancer cells
Knock-down reagent: siRNA pool against human genes, 50 nM
Read-out: 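Log2 levels of six mRNAs (branched-DNA multiplex), adjusted by two reference genes and the non-targeting median, then scored against the average KSR1 knockdown pattern as Pearson r and euclidean distance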
Direction: mean correlation with KSR1 profile: higher = expression change more like KSR1 knockdown; mean distance from KSR1 profile: higher = expression change less like KSR1 knockdown
In all, the deposit lists about 14,000 reagents; this is a part drawn at random. 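Higher correlation or smaller distance means closer resemblance to KSR1 loss; control wells, including KSR1 knockdowns, recur on many plates.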 Not all columns of the deposit are shown. Not given: the time to read-out.

ALDH8A1 — mean correlation with KSR1 profile: -0.126; mean distance from KSR1 profile: 2.12
SAMM50 — mean correlation with KSR1 profile: -0.116; mean distance from KSR1 profile: 1.73
CAPRIN1 — mean correlation with KSR1 profile: -0.623; mean distance from KSR1 profile: 2.93
OGFRL1 — mean correlation with KSR1 profile: 0.632; mean distance from KSR1 profile: 1.24
RBPJL — mean correlation with KSR1 profile: -0.226; mean distance from KSR1 profile: 2.41
FUT6 — mean correlation with KSR1 profile: -0.475; mean distance from KSR1 profile: 3.62
GPR27 — mean correlation with KSR1 profile: -0.686; mean distance from KSR1 profile: 3.32
TUBAL3 — mean correlation with KSR1 profile: 0.667; mean distance from KSR1 profile: 1.55
PTGDR — mean correlation with KSR1 profile: 0.612; mean distance from KSR1 profile: 1.72
RGL1 — mean correlation with KSR1 profile: 0.604; mean distance from KSR1 profile: 1.41
ATP6V1D — mean correlation with KSR1 profile: -0.311; mean distance from KSR1 profile: 4.57
ICE2 — mean correlation with KSR1 profile: -0.731; mean distance from KSR1 profile: 2.18
TAS2R42 — mean correlation with KSR1 profile: -0.103; mean distance from KSR1 profile: 1.64
ZNF333 — mean correlation with KSR1 profile: 0.778; mean distance from KSR1 profile: 1.54
LPAR4 — mean correlation with KSR1 profile: 0.896; mean distance from KSR1 profile: 0.742
H1-1 — mean correlation with KSR1 profile: -0.372; mean distance from KSR1 profile: 4.98
APAF1 — mean correlation with KSR1 profile: 0.524; mean distance from KSR1 profile: 1.82
UQCRFS1 — mean correlation with KSR1 profile: -0.861; mean distance from KSR1 profile: 2.27
CDKN1A — mean correlation with KSR1 profile: 0.946; mean distance from KSR1 profile: 0.863
LOC83459 (retired record) — mean correlation with KSR1 profile: 0.746; mean distance from KSR1 profile: 3.37

Next part, starting with the last 5 of the part before.
H1-1 — mean correlation with KSR1 profile: -0.372; mean distance from KSR1 profile: 4.98
APAF1 — mean correlation with KSR1 profile: 0.524; mean distance from KSR1 profile: 1.82
UQCRFS1 — mean correlation with KSR1 profile: -0.861; mean distance from KSR1 profile: 2.27
CDKN1A — mean correlation with KSR1 profile: 0.946; mean distance from KSR1 profile: 0.863
LOC83459 (retired record) — mean correlation with KSR1 profile: 0.746; mean distance from KSR1 profile: 3.37
TMEM60 — mean correlation with KSR1 profile: 0.47; mean distance from KSR1 profile: 2.64
TSPAN8 — mean correlation with KSR1 profile: -0.177; mean distance from KSR1 profile: 3.31
COX6C — mean correlation with KSR1 profile: 0.406; mean distance from KSR1 profile: 1.79
FOXN2 — mean correlation with KSR1 profile: 0.0584; mean distance from KSR1 profile: 2.63
ATP2A1 — mean correlation with KSR1 profile: -0.171; mean distance from KSR1 profile: 2.46
ST3GAL4 — mean correlation with KSR1 profile: 0.504; mean distance from KSR1 profile: 1.85
SDCBP2 — mean correlation with KSR1 profile: 0.0925; mean distance from KSR1 profile: 1.67
CYCS — mean correlation with KSR1 profile: -0.382; mean distance from KSR1 profile: 2.07
CSTA — mean correlation with KSR1 profile: 0.0808; mean distance from KSR1 profile: 2.44
PDXDC1 — mean correlation with KSR1 profile: -0.662; mean distance from KSR1 profile: 2.99
NDUFV2 — mean correlation with KSR1 profile: -0.209; mean distance from KSR1 profile: 4.24
COX5A — mean correlation with KSR1 profile: -0.336; mean distance from KSR1 profile: 1.02
FARP1 — mean correlation with KSR1 profile: 0.736; mean distance from KSR1 profile: 1.82
LIM2 — mean correlation with KSR1 profile: -0.227; mean distance from KSR1 profile: 3.01
APOC4 — mean correlation with KSR1 profile: -0.262; mean distance from KSR1 profile: 2.1
PIGL — mean correlation with KSR1 profile: 0.915; mean distance from KSR1 profile: 1.46
